Data from PMC11443168.

By UniProt entry, the sequences of proteins in these tests, tags left out. Residues count along the entry.
UniProt P30101, residues 25-505: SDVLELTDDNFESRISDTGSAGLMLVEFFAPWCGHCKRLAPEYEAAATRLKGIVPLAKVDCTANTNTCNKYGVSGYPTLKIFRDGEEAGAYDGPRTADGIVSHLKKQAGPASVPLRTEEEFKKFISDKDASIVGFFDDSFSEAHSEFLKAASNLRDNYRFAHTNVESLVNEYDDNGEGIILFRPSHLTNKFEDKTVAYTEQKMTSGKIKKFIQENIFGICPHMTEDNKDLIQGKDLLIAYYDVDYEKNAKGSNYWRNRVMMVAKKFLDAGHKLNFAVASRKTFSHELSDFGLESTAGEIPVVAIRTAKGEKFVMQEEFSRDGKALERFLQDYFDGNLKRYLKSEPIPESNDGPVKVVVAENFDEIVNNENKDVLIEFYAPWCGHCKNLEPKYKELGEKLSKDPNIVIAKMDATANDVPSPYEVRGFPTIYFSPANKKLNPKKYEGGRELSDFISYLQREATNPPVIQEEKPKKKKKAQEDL
UniProt P07237, residues 18-508: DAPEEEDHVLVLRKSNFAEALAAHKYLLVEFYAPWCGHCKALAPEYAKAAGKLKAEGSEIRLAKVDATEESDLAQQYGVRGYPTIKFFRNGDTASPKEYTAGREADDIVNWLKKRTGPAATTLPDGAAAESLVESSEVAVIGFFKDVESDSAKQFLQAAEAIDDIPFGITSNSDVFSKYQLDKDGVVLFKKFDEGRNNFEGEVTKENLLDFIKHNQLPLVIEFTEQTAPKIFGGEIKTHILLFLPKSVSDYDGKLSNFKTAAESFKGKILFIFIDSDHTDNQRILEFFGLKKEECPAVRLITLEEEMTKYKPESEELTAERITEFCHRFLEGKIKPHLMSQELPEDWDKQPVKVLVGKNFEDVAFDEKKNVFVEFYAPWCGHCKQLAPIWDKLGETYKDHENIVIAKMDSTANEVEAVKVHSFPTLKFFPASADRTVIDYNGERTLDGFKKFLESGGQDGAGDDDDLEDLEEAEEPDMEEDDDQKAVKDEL

T1: TMX5/TXNDC15, V5-tagged (TMX5-V5 WT) (UniProt Q96J42)
T1 sequence: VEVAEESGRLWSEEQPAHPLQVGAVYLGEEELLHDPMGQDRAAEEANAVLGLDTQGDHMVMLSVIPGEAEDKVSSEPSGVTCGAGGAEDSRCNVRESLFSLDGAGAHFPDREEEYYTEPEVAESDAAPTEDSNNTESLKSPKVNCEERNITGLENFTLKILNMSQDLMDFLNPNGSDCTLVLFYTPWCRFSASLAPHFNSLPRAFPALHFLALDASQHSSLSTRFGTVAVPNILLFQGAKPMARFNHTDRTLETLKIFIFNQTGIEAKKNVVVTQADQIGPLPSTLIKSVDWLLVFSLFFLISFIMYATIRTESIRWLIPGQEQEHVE


Molecular target: T1, TMX5/TXNDC15, V5-tagged (TMX5-V5 WT)
Assay: affinity purification with mass spectrometry; V5-tagged TMX5 double-immunoprecipitated with anti-V5 beads from HEK293 RIPA lysates; non-reducing and reducing SDS-PAGE, silver stain; gel regions above TMX5 cut, in-gel trypsin digestion, LC/MS; proteins present in the non-reducing and absent in the reducing region taken as mixed-disulfide partners

Molecule	binding
endogenous ERp57 (PDIA3) (from UniProt P30101 25-505)	binds
endogenous PDI (PDIA1) (from UniProt P07237 18-508)	binds
endogenous ERp44 (protein, UniProt Q9BS26 30-406) EITSLDTENIDEILNNADVALVNFYADWCRFSQMLHPIFEEASDVIKEEFPNENQVVFARVDCDQHSDIAQRYRISKYPTLKLFRNGMMMKREYRGQRSVKALADYIRQQKSDPIQEIRDLAEITTLDRSKRNIIGYFEQKDSDNYRVFERVANILHDDCAFLSAFGDVSKPERYSGDNIIYKPPGHSAPDMVYLGAMTNFDVTYNWIQDKCVPLVREITFENGEELTEEGLPFLILFHMKEDTESLEIFQNEVARQLISEKGTINFLHADCDKFRHPLLHIQKTPADCPVIAIDSFRHMYVFGDFKDVLIPGKLKQFVFDLHSGKLHREFHHGPDPTDTAPGEQAQDVASSPPESSFQKLAPSEYRYTLLRDRDEL	binds

No constants are given. Whether binding was seen depends on the method and setting. In cells and extracts the contact can be indirect. These calls come from enrichment with a bait or labelling near it, and not all partners need be listed. Where a sequence is shown, tags or fusion partners need not be part of it.
